Data from PMC12095580, “Wnt signalosome assembly is governed by conformational flexibility of Axin and by the AP2 clathrin adaptor” (Nature Communications, 2025).
These are yes or no findings as the source states them, for the method shown. Binding calls can cover weak binding; strength is not graded here. For part of these data: Binding seen in cells or lysates may run through a third protein.

Amino acid sequences for entries named in this document (tags omitted). A change or cut given only in a name is not applied to a line headed by its entry.
UniProt O75581: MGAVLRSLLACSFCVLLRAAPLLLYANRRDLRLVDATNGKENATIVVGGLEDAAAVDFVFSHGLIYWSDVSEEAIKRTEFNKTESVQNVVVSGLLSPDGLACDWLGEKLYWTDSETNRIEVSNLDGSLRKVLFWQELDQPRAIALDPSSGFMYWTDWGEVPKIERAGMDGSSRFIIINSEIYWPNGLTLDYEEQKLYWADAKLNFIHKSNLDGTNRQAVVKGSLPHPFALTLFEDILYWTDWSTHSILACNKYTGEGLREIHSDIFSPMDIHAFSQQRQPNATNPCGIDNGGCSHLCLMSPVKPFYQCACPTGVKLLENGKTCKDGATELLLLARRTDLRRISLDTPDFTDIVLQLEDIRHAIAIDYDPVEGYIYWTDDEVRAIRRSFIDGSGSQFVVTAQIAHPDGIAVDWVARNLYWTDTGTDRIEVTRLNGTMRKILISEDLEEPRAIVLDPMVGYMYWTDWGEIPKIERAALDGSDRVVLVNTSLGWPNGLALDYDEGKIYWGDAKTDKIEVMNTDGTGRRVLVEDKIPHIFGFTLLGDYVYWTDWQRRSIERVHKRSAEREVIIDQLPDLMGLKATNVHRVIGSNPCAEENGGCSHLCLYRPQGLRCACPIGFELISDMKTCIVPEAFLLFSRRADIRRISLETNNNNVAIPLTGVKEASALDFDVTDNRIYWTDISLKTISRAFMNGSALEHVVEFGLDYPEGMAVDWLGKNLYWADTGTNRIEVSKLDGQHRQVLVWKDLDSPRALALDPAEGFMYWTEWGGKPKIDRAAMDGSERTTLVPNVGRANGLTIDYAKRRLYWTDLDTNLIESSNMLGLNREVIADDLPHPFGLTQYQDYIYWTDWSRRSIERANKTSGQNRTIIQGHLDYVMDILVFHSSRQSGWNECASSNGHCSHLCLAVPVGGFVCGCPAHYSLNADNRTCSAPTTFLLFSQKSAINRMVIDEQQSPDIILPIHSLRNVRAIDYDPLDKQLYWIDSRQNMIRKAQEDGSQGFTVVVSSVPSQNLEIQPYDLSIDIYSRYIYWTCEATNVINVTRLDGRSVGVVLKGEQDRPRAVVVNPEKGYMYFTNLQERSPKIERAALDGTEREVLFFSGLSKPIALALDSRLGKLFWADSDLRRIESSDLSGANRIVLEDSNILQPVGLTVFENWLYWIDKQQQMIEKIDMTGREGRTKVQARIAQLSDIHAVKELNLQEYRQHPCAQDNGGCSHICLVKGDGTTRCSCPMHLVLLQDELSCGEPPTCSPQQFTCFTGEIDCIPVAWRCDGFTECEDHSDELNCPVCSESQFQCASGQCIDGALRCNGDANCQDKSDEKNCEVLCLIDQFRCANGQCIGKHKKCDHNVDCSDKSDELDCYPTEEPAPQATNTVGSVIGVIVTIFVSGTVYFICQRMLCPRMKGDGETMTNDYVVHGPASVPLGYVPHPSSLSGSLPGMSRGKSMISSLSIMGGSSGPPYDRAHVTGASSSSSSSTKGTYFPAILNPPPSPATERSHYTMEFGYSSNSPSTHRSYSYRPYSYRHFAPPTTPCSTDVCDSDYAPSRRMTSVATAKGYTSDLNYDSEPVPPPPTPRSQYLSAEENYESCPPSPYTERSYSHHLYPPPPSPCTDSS
UniProt O15169: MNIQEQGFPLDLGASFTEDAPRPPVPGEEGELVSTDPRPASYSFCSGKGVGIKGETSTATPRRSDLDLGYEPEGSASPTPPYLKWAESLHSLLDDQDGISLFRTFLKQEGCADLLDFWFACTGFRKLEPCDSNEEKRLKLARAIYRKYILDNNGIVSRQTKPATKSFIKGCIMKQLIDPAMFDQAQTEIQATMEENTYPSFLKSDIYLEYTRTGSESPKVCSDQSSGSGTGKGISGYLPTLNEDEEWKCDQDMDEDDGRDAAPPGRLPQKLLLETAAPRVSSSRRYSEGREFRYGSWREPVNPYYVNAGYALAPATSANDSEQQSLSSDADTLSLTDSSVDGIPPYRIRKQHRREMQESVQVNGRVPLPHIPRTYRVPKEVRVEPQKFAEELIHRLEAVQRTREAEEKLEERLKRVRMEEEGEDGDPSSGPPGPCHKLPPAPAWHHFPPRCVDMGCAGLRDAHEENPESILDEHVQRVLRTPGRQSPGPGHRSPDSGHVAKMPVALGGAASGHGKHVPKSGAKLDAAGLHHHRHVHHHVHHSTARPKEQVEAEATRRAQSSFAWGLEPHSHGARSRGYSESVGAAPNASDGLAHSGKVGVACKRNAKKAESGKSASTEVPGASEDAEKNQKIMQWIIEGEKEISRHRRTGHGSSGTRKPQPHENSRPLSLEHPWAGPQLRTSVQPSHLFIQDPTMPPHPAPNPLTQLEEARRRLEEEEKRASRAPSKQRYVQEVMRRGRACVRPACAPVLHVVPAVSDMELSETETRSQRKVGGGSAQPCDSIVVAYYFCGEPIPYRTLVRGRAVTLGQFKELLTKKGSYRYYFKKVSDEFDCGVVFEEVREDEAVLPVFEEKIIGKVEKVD

What was measured:
[1] = target: LRP6-GFP ΔB (UniProt O75581); assay: co-IP; wt or mutant LRP6-GFP co-expressed with FLAG-Axin and/or GSK3β-HA in LRP5/6 DKO cells (Fig. 8d, e; cells of Fig. 8f not stated); GFP-trap IP, Western blot
[2] = target: His6x-AP2μ (YxxΦ-binding domain of rat AP2μ) (rat); assay: crystal structure; AP2μ YxxΦ-binding domain (10 mg/ml) with 3x excess of synthetic peptide; sitting drop, 18 °C; both purified

binding [1] | binding [2] | Molecule
binds |  | FLAG-Axin1 (from UniProt O15169 1-862)
 | binds | SYRHFA [SYRHFA peptide (synthetic, co-crystallized)]
 | binds | SYRPYS [SYRPYS peptide (synthetic, co-crystallized)]
